PubChem BioAssay AID652259 | Drosophila RNAi Screening Center – 2013
Test: 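Knock-downs that push a Wingless-driven reporter up or down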 (primary screen). Cell system: Drosophila clone 8 imaginal disc epithelial cells. Reagent: long dsRNA against Drosophila genes. Challenge: pathway stimulated by co-transfected Wingless expression plasmid. Measurement: 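Firefly luciferase from a tcf-site Wingless reporter, measured alongside co-transfected Renilla luciferase that tracks transfection; pathway stimulated by a Wingless plasmid; the firefly-to-Renilla ratio is not deposited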. Reading the numbers: firefly reporter light: higher = more Wg reporter light, before normalisation; Renilla control light: higher = more transfected or surviving cells. Active means: 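Strong candidates differ from their plate mean by at least two out of four per-plate statistical tests; weak candidates meet just one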. Meaning of the calls: active = candidate regulator (raises or lowers reporter); inactive = not a candidate.
The deposit covers about 22,000 reagents; below is an unselected part of those that have a named target and a result. Over the whole deposit, 233 (1.1%) are marked active. 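Light values are raw, unnormalised plate reads; the ratio scores behind the reporter calls were not deposited.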 Not stated in the record: the amount of reagent, the time to read-out, the dose of the treatment.

With Dhc98D (Dynein heavy chain at 89D) [DRSC16645], how do the results read?
firefly reporter light, replicate 1: 9056; Renilla control light, replicate 1: 2924; call: inactive

For Hex-C (Hexokinase C) [DRSC07079], what does the deposit list?
firefly reporter light, replicate 1: 4491; Renilla control light, replicate 1: 1437; call: inactive

For CG3739 [DRSC15510], what was measured?
firefly reporter light, replicate 1: 8560; Renilla control light, replicate 1: 1709; call: inactive

What is on record for CG6216 [DRSC10606]?
firefly reporter light, replicate 1: 7828; Renilla control light, replicate 1: 2690; call: inactive

What did the screen give for Jwa [DRSC02048]?
firefly reporter light, replicate 1: 13463; Renilla control light, replicate 1: 4822; call: inactive

What is on record for CG12994 [DRSC19192]?
firefly reporter light, replicate 1: 5779; Renilla control light, replicate 1: 1125; call: inactive

Which result is listed for CG12994 [DRSC19514]?
firefly reporter light, replicate 1: 20072; Renilla control light, replicate 1: 9106; call: inactive

Which result is listed for CG32681 [DRSC17646]?
firefly reporter light, replicate 1: 3512; Renilla control light, replicate 1: 1558; call: inactive

How did the screen score heph (hephaestus) [DRSC14082]?
firefly reporter light, replicate 1: 7768; Renilla control light, replicate 1: 2289; call: inactive

What did the screen give for heph (hephaestus) [DRSC14085]?
firefly reporter light, replicate 1: 2485; Renilla control light, replicate 1: 961; call: inactive

With heph (hephaestus) [DRSC15436], what does the deposit list?
firefly reporter light, replicate 1: 29910; Renilla control light, replicate 1: 12599; call: inactive

Which result is listed for heph (hephaestus) [DRSC16783]?
firefly reporter light, replicate 1: 18828; Renilla control light, replicate 1: 10233; call: inactive

What is on record for CG34296 [DRSC13961]?
firefly reporter light, replicate 1: 4443; Renilla control light, replicate 1: 2393; call: inactive

Which result is listed for a6 [DRSC18733]?
firefly reporter light, replicate 1: 2569; firefly reporter light, replicate 2: 5891; Renilla control light, replicate 1: 1296; Renilla control light, replicate 2: 2737; call: inactive

What is on record for CG11600 [DRSC14332]?
firefly reporter light, replicate 1: 17490; Renilla control light, replicate 1: 3920; call: inactive

What is on record for CG5646 [DRSC15853]?
firefly reporter light, replicate 1: 2154; firefly reporter light, replicate 2: 6457; Renilla control light, replicate 1: 839; Renilla control light, replicate 2: 2108; call: inactive

Which result is listed for CG5001 [DRSC00673]?
firefly reporter light, replicate 1: 3440; firefly reporter light, replicate 2: 5250; Renilla control light, replicate 1: 1634; Renilla control light, replicate 2: 1957; call: inactive

What did the screen give for CG32833 [DRSC04596]?
firefly reporter light, replicate 1: 8154; Renilla control light, replicate 1: 2501; call: inactive

Which result is listed for Lsp1beta (Larval serum protein 1 beta) [DRSC00757]?
firefly reporter light, replicate 1: 8976; Renilla control light, replicate 1: 3539; call: inactive

What did the screen give for CG32694 [DRSC17844]?
firefly reporter light, replicate 1: 13898; Renilla control light, replicate 1: 6381; call: inactive

Which result is listed for CG32694 [DRSC17855]?
firefly reporter light, replicate 1: 17701; Renilla control light, replicate 1: 10667; call: inactive

What is on record for CG32694 [DRSC22670]?
firefly reporter light, replicate 1: 3.67e5; firefly reporter light, replicate 2: 4.23e5; Renilla control light, replicate 1: 1.36e5; Renilla control light, replicate 2: 1.05e5; call: inactive

For pim (pimples) [DRSC03591], what was measured?
firefly reporter light, replicate 1: 5476; Renilla control light, replicate 1: 1024; call: inactive

For g (garnet) [DRSC20335], what does the deposit list?
firefly reporter light, replicate 1: 24347; Renilla control light, replicate 1: 12352; call: inactive

With CG15035 [DRSC17967], how do the results read?
firefly reporter light, replicate 1: 14045; Renilla control light, replicate 1: 8577; call: inactive

What did the screen give for CG15617 [DRSC06570]?
firefly reporter light, replicate 1: 5510; Renilla control light, replicate 1: 2656; call: inactive

How did the screen score tRNA:Leu-CAA-2-3 (transfer RNA:Leucine-CAA 2-3) [DRSC13633]?
firefly reporter light, replicate 1: 3478; Renilla control light, replicate 1: 1541; call: inactive

What is on record for CR33013 (pseudo) [DRSC06286]?
firefly reporter light, replicate 1: 7381; Renilla control light, replicate 1: 2684; call: inactive

For CG2310 [DRSC15438], what was measured?
firefly reporter light, replicate 1: 7666; Renilla control light, replicate 1: 2258; call: inactive

For CG34326 (retired record) [DRSC19165], what was measured?
firefly reporter light, replicate 1: 4704; Renilla control light, replicate 1: 1728; call: inactive

With CG15145 [DRSC02446], what does the deposit list?
firefly reporter light, replicate 1: 1994; firefly reporter light, replicate 2: 6945; Renilla control light, replicate 1: 1040; Renilla control light, replicate 2: 3302; call: inactive

For IFT57 (Intraflagellar transport 57) [DRSC00720], what was measured?
firefly reporter light, replicate 1: 2530; firefly reporter light, replicate 2: 6976; Renilla control light, replicate 1: 1114; Renilla control light, replicate 2: 1008; call: inactive

Targets above whose target name begins with H or h (5):
Hex-C (Hexokinase C) [DRSC07079]: firefly reporter light, replicate 1 = 4491; Renilla control light, replicate 1 = 1437; call = inactive
heph (hephaestus) [DRSC14082]: firefly reporter light, replicate 1 = 7768; Renilla control light, replicate 1 = 2289; call = inactive
heph (hephaestus) [DRSC14085]: firefly reporter light, replicate 1 = 2485; Renilla control light, replicate 1 = 961; call = inactive
heph (hephaestus) [DRSC15436]: firefly reporter light, replicate 1 = 29910; Renilla control light, replicate 1 = 12599; call = inactive
heph (hephaestus) [DRSC16783]: firefly reporter light, replicate 1 = 18828; Renilla control light, replicate 1 = 10233; call = inactive
